# Hit rate of the full screen: of about 31,000 sequences, about 1,400 (4.5%) were called active.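 The calls were made as follows: active = median seed-adjusted z-score above 1 or below -1; inactive = the rest.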 This is one part of the list.
# Experiment: Novel Modifiers of Survival Motor Neuron (SMN) Protein: Gene Identification via Genome-wide siRNA Screen;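 also: luminescence tracks full-length SMN protein made from the SMN2 reporter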
# Conditions: HEK293T SMN2-luciferase reporter, siRNA knockdown, 72 h; actives lie on both sides
# Procedure, shortened: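 Luciferase signal, proportional to full-length SMN made from an SMN2 cDNA reporter in stable HEK293T cells, was read 72 h after siRNA reverse transfection. Values were expressed as MAD scores after non-targeting-control normalization and log10 conversion; seed analysis flagged off-targets.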
row,Sequence,median seed-adjusted z-score
1,CCACCUGCACCUUAGAAUATT against GRM4,inactive: -0.71
2,CCACAAAUGUUUCAACCGATT against IPO11,inactive: -0.245
3,GCAACCACCUAUAUCCUCATT against P2RY10,inactive: -0.432
4,GGAUCUGCUUUCGAACCUATT against MBOAT1,active: -1.22
5,UGGUCUUCACAACUCGUUATT against KDELR2,inactive: 0
6,CUUGAGAUCUGUCAACAGATT against VPS41,inactive: 0.52
7,GGACUACAAGGGUUCCGAUTT against RTEL1,inactive: 0.458
8,GCACGGUGCAAGGACAUCATT against RNH1,inactive: 0.55
9,ACUAAGAGGUGAACAUGUATT against PAK4,inactive: -0.742
10,GAAUGUUACUUUAUCAUGATT against RAB40B,inactive: -0.31
11,CCAUGAUUAAGGGUCUUUATT against LDHA,inactive: 0.401
12,GCAAGAUUAGACAUACUGATT against PSMC6,inactive: -0.578
13,GAAAAUCGACUCUCAUAAATT against 2-Sep,inactive: 0.0349
14,AGACUGAACUCCGAACAGATT against SSH3,inactive: -0.0772
15,GAACUGCUAUGAUGAUUCUTT against RHAG,inactive: -0.212
16,GCACUGGUGUUGAAUGACATT against DAG1,inactive: -0.104
17,CCCUCAACGUGACCAAGGATT against CSF2RB,inactive: -0.454
18,CAAAGUACCGAGUCGAAUATT against SENP7,inactive: 0.547
19,GAUAUACGAGGGAACAGAATT against SLITRK4,inactive: -0.015
20,CAACAAUGCUGGUUCUGAUTT against MBL2,inactive: -0.252
21,CUACGUACCCUGCUACUGATT against SLC4A3,inactive: -0.7
22,CGACGAUCACAGAUACAAATT against TBX5,inactive: 0.143
23,GGUUUCCGAGUACCGCUGATT against HBQ1,inactive: -0.578

# Exported with bars between the fields: part of the list above
row | Sequence | median seed-adjusted z-score
7 | GGACUACAAGGGUUCCGAUTT against RTEL1 | inactive: 0.458
8 | GCACGGUGCAAGGACAUCATT against RNH1 | inactive: 0.55
